Results deposited as PubChem BioAssay AID743121 (NCATS, 2013)

Assay: 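Partners whose loss is lethal together with topoisomerase I blockade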 (primary screen)
System: MDA-MB-231 cells, a human breast cancer line
Reagent: single siRNA against human genes, 20 nM siRNA (0.8 pmol per well)
Duration: 120 h (drug added 48 h after transfection, read 72 h later)
Challenge: camptothecin 20 nM (about EC30) for 72 h; vehicle 0.1% DMSO in parallel plates
Read-out: 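Cell viability by ATP luminescence (CellTiter-Glo) as % of non-targeting siRNA wells, and the log2 ratio of viability without drug over viability with camptothecin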
Reading the numbers: log2 vehicle/camptothecin viability: higher = stronger sensitisation to camptothecin
Active means: 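Active genes have an RSA gene-level p-value below 0.001, computed from the ratios of their separate siRNAs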
Shown is one part, drawn at random, of about 26,000 reagents. In the full data, 167 (0.63%) were called active. 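Calls are per gene from RSA p-values that are not deposited; an individual active-marked siRNA can sensitise only weakly.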 Entries without a mark were called inactive. The numbers tell different reagents against one gene apart. Not all columns of the deposit are shown.

Knock-down of EPM2A #1 resulted in: log2 vehicle/camptothecin viability -0.358.
For EPM2A #2, the values are log2 vehicle/camptothecin viability -0.345.
Depletion of EPM2A #3 gave: log2 vehicle/camptothecin viability 0.0781.
EPM2A #4 showed log2 vehicle/camptothecin viability -0.07.
For EPM2A #5 the deposit lists log2 vehicle/camptothecin viability -0.159.
Silencing of EPM2A #6 gave: log2 vehicle/camptothecin viability -0.53.
OR11A1 #1 showed log2 vehicle/camptothecin viability -0.329.
OR11A1 #2 scored log2 vehicle/camptothecin viability -0.411.
Against OR11A1 #3, the entry reads log2 vehicle/camptothecin viability -0.559.
Silencing of OR11A1 #4 gave: log2 vehicle/camptothecin viability -0.595.
MSH5 #1 scored log2 vehicle/camptothecin viability 0.187.
MSH5 #2 gave log2 vehicle/camptothecin viability -0.29.
MSH5 #3 scored log2 vehicle/camptothecin viability -0.489.
For MSH5 #4, the entry reads log2 vehicle/camptothecin viability -0.0888.
Depletion of OPN1SW #1 resulted in: log2 vehicle/camptothecin viability 0.515.
OPN1SW #2 scored log2 vehicle/camptothecin viability 0.177.
With knock-down of OPN1SW #3, the record shows log2 vehicle/camptothecin viability -0.208.
After knock-down of OPN1SW #4, the record shows log2 vehicle/camptothecin viability 0.678.
Against MAPK7 #1 the deposit lists log2 vehicle/camptothecin viability -0.377.
Knock-down of MAPK7 #2 came out at: log2 vehicle/camptothecin viability -0.314.
Silencing of MAPK7 #3 gave: log2 vehicle/camptothecin viability -0.164.
With knock-down of MAPK7 #4, the screen gave log2 vehicle/camptothecin viability -0.184.
For RIOK1 #1, the values are log2 vehicle/camptothecin viability -0.141.
For RIOK1 #2, the entry reads log2 vehicle/camptothecin viability -0.471.
Silencing of RIOK1 #3 gave: log2 vehicle/camptothecin viability -0.45.
Against RIOK1 #4, the values are log2 vehicle/camptothecin viability -0.606.
After knock-down of BTN3A1 #1, the screen gave log2 vehicle/camptothecin viability 0.38.
Against BTN3A1 #2, the entry reads log2 vehicle/camptothecin viability -0.341.
For BTN3A1 #3, the entry reads log2 vehicle/camptothecin viability -0.211.
BTN3A1 #4 gave log2 vehicle/camptothecin viability 0.106.
After knock-down of TNFRSF12A #1, the record shows log2 vehicle/camptothecin viability -0.25.
TNFRSF12A #2 showed log2 vehicle/camptothecin viability -0.243.
Silencing of TNFRSF12A #3 resulted in: log2 vehicle/camptothecin viability -0.0826.
Against TNFRSF12A #4 the deposit lists log2 vehicle/camptothecin viability -0.258.
After knock-down of OR8U8 #1 the results were log2 vehicle/camptothecin viability -0.22.
Against OR8U8 #2, the values are log2 vehicle/camptothecin viability -0.523.
With knock-down of OR8U8 #3 the results were log2 vehicle/camptothecin viability -0.349.

Reformatted: entries from further up.
| target gene | reagent no. | log2 vehicle/camptothecin viability |
| --- | --- | --- |
| EPM2A | 2 | -0.345 |
| EPM2A | 3 | 0.0781 |
| EPM2A | 4 | -0.07 |
| EPM2A | 5 | -0.159 |
